{
  "source": "the supplement of paper PMC8728848",
  "experiment_in_all_cases": "glycan array binding signal (z-score within array); higher = stronger binding",
  "settings_in_all_cases": "glycan notation: IUPAC condensed, linker removed",
  "key": {"[1]": {"target": "Gal(b1-4)GalNAc(b1-3)[Fuc(a1-2)]Gal(b1-4)GlcNAc", "method_in_brief": "(§1)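 Glycan array binding is given as a within-array Z-score, which can be read as non-binding when negative. The arrays, 3228 of them, came from the Consortium for Functional Glycomics database and were retained only where the protein sequence was available. Z-scores were averaged across arrays of the same protein sequence at different concentrations or buffers and across linkers.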"}, "[2]": {"target": "Gal(b1-4)Glc", "method_in_brief": "as §1"}, "[3]": {"target": "Gal(b1-4)Glc6S", "method_in_brief": "as §1"}, "[4]": {"target": "Gal(b1-4)GlcNAc", "method_in_brief": "as §1"}, "[5]": {"target": "Gal(b1-4)GlcNAc(a1-6)Gal(b1-4)GlcNAc", "method_in_brief": "as §1"}, "[6]": {"target": "Gal(b1-4)GlcNAc(b1-2)Man", "method_in_brief": "as §1"}, "[7]": {"target": "Gal(b1-4)GlcNAc(b1-2)Man(a1-3)Man(b1-4)GlcNAc(b1-4)GlcNAc", "method_in_brief": "as §1"}, "[8]": {"target": "Gal(b1-4)GlcNAc(b1-2)Man(a1-3)[Gal(b1-4)GlcNAc(b1-2)Man(a1-6)]Man(b1-4)GlcNAc(b1-4)GlcNAc", "method_in_brief": "as §1"}, "[9]": {"target": "Gal(b1-4)GlcNAc(b1-2)Man(a1-3)[Gal(b1-4)GlcNAc(b1-2)Man(a1-6)]Man(b1-4)GlcNAc(b1-4)[Fuc(a1-6)]GlcNAc", "method_in_brief": "as §1"}, "[10]": {"target": "Gal(b1-4)GlcNAc(b1-2)Man(a1-3)[Gal(b1-4)GlcNAc(b1-2)Man(a1-6)][Gal(b1-4)GlcNAc(b1-4)]Man(b1-4)GlcNAc(b1-4)[Fuc(a1-6)]GlcNAc", "method_in_brief": "as §1"}, "[11]": {"target": "Gal(b1-4)GlcNAc(b1-2)Man(a1-3)[Gal(b1-4)GlcNAc(b1-2)Man(a1-6)][GlcNAc(b1-4)]Man(b1-4)GlcNAc(b1-4)[Fuc(a1-6)]GlcNAc", "method_in_brief": "as §1"}, "[12]": {"target": "Gal(b1-4)GlcNAc(b1-2)Man(a1-3)[GlcNAc(b1-2)Man(a1-6)]Man(b1-4)GlcNAc(b1-4)GlcNAc", "method_in_brief": "as §1"}, "[13]": {"target": "Gal(b1-4)GlcNAc(b1-2)Man(a1-3)[GlcNAc(b1-4)][Gal(b1-4)GlcNAc(b1-2)Man(a1-6)]Man(b1-4)GlcNAc(b1-4)GlcNAc", "method_in_brief": "as §1"}, "[14]": {"target": "Gal(b1-4)GlcNAc(b1-2)Man(a1-3)[Man(a1-6)]Man(b1-4)GlcNAc(b1-4)GlcNAc", "method_in_brief": "as §1"}, "[15]": {"target": "Gal(b1-4)GlcNAc(b1-2)Man(a1-6)Man(b1-4)GlcNAc(b1-4)GlcNAc", "method_in_brief": "as §1"}, "[16]": {"target": "Gal(b1-4)GlcNAc(b1-2)Man(a1-6)[GlcNAc(b1-2)Man(a1-3)]Man(b1-4)GlcNAc(b1-4)GlcNAc", "method_in_brief": "as §1"}, "[17]": {"target": "Gal(b1-4)GlcNAc(b1-2)Man(a1-6)[Man(a1-3)]Man(b1-4)GlcNAc(b1-4)GlcNAc", "method_in_brief": "as §1"}, "[18]": {"target": "Gal(b1-4)GlcNAc(b1-2)[Gal(b1-4)GlcNAc(b1-4)]Man(a1-3)[Gal(b1-4)GlcNAc(b1-2)Man(a1-6)]Man(b1-4)GlcNAc(b1-4)GlcNAc", "method_in_brief": "as §1"}, "[19]": {"target": "Gal(b1-4)GlcNAc(b1-2)[Gal(b1-4)GlcNAc(b1-4)]Man(a1-3)[Gal(b1-4)GlcNAc(b1-2)[Gal(b1-4)GlcNAc(b1-6)]Man(a1-6)]Man(b1-4)GlcNAc(b1-4)GlcNAc", "method_in_brief": "as §1"}, "[20]": {"target": "Gal(b1-4)GlcNAc(b1-2)[Gal(b1-4)GlcNAc(b1-4)]Man(a1-3)[GlcNAc(b1-4)][Gal(b1-4)GlcNAc(b1-2)Man(a1-6)]Man(b1-4)GlcNAc(b1-4)GlcNAc", "method_in_brief": "as §1"}, "[21]": {"target": "Gal(b1-4)GlcNAc(b1-2)[Gal(b1-4)GlcNAc(b1-4)]Man(a1-3)[GlcNAc(b1-4)][Gal(b1-4)GlcNAc(b1-2)[Gal(b1-4)GlcNAc(b1-6)]Man(a1-6)]Man(b1-4)GlcNAc(b1-4)GlcNAc", "method_in_brief": "as §1"}, "[22]": {"target": "Gal(b1-4)GlcNAc(b1-2)[Gal(b1-4)GlcNAc(b1-6)]Man(a1-6)[Gal(b1-4)GlcNAc(b1-2)Man(a1-3)]Man(b1-4)GlcNAc(b1-4)GlcNAc", "method_in_brief": "as §1"}, "[23]": {"target": "Gal(b1-4)GlcNAc(b1-2)[Gal(b1-4)GlcNAc(b1-6)]Man(a1-6)[Gal(b1-4)GlcNAc(b1-2)Man(a1-3)]Man(b1-4)GlcNAc(b1-4)[Fuc(a1-6)]GlcNAc", "method_in_brief": "as §1"}, "[24]": {"target": "Gal(b1-4)GlcNAc(b1-2)[Gal(b1-4)GlcNAc(b1-6)]Man(a1-6)[GlcNAc(b1-4)][Gal(b1-4)GlcNAc(b1-2)Man(a1-3)]Man(b1-4)GlcNAc(b1-4)GlcNAc", "method_in_brief": "as §1"}, "[25]": {"target": "Gal(b1-4)GlcNAc(b1-2)[Gal(b1-4)GlcNAc(b1-6)]Man(a1-6)[GlcNAc(b1-4)][Gal(b1-4)GlcNAc(b1-2)[Gal(b1-4)GlcNAc(b1-4)]Man(a1-3)]Man(b1-4)GlcNAc(b1-4)[Fuc(a1-6)]GlcNAc", "method_in_brief": "as §1"}, "[26]": {"target": "Gal(b1-4)GlcNAc(b1-3)Gal(b1-3)GalNAc", "method_in_brief": "as §1"}, "[27]": {"target": "Gal(b1-4)GlcNAc(b1-3)Gal(b1-3)GlcNAc", "method_in_brief": "as §1"}, "[28]": {"target": "Gal(b1-4)GlcNAc(b1-3)Gal(b1-4)Glc", "method_in_brief": "as §1"}, "[29]": {"target": "Gal(b1-4)GlcNAc(b1-3)Gal(b1-4)GlcNAc", "method_in_brief": "as §1"}, "[30]": {"target": "Gal(b1-4)GlcNAc(b1-3)Gal(b1-4)GlcNAc(b1-2)Man(a1-3)[Gal(b1-4)GlcNAc(b1-3)Gal(b1-4)GlcNAc(b1-2)Man(a1-6)]Man(b1-4)GlcNAc(b1-4)GlcNAc", "method_in_brief": "as §1"}},
  "note": "The list shows a part of the results.",
  "data": [
    {"binder": "CcfD (Bacteroides vulgatus), A6KYX8 (protein) MKYKNYFKSIIYLALGAFTLGSCEDFLDRQEDEKLTFDKIWESRNTTQQYWLNAMSFLPNENGSLQGDTEPYLGASDECTIAYDRQYRWINFGTWNPSQVPYYKMDHYYKGIRECNIFLQNVYKCSDPLVTKDQLDEWYWQTRFARAYYYFLMMRDYGPVFLLGDDLLDFTASTEELYRPRNTWDQCVNYVVSEMTQCAESGVVLQQSDLPAAKWGLATVGTCHAVISRLLLYSARPLFNGNKLYSTVKNPDAPDFPELSGVKLFPELDNTKWQKAAEAAKKLIDNPCYELYRAGNDNPYEDYYGVTHETWNKELIWTDRYNGLFSWGVGTVPTGVAGTAYGAVGPTQALVDAYAMNTGWYPITGYEADGTPIVEPLSGYELASELEKSSWIYPSGGWSNKADFEIEAPNMYKDREPRFYVTVFFGGNQWLHGNSATSISFAKGGNGNKSHDYPKSGYLCNRFYDHKLNSSEGQWGNITFPVFRLGEIYLNFIEAVLECKKNGVALDPSYEALAMEKWADLRKRAGLDPITSIYGQVSTEELIQLCRKERQIELAFERHRYFDTRTWMIATQTDNGKMYGMNTSCPLDAGMKGTETPDGFWERTAFETRVFQNKHYLYPFSQRELDRNKLLTQNYGW", "values": [
      {"measurement": "glycan array binding signal (z-score)", "setting": "[1]", "result": -0.749},
      {"measurement": "glycan array binding signal (z-score)", "setting": "[2]", "result": -0.536},
      {"measurement": "glycan array binding signal (z-score)", "setting": "[3]", "result": -0.345},
      {"measurement": "glycan array binding signal (z-score)", "setting": "[4]", "result": -0.361},
      {"measurement": "glycan array binding signal (z-score)", "setting": "[5]", "result": -0.876},
      {"measurement": "glycan array binding signal (z-score)", "setting": "[6]", "result": 0.318},
      {"measurement": "glycan array binding signal (z-score)", "setting": "[7]", "result": 3},
      {"measurement": "glycan array binding signal (z-score)", "setting": "[8]", "result": -0.805},
      {"measurement": "glycan array binding signal (z-score)", "setting": "[9]", "result": 1.01},
      {"measurement": "glycan array binding signal (z-score)", "setting": "[10]", "result": 0.531},
      {"measurement": "glycan array binding signal (z-score)", "setting": "[11]", "result": -0.983},
      {"measurement": "glycan array binding signal (z-score)", "setting": "[12]", "result": -0.962},
      {"measurement": "glycan array binding signal (z-score)", "setting": "[13]", "result": -0.597},
      {"measurement": "glycan array binding signal (z-score)", "setting": "[14]", "result": -0.774},
      {"measurement": "glycan array binding signal (z-score)", "setting": "[15]", "result": 0.018},
      {"measurement": "glycan array binding signal (z-score)", "setting": "[16]", "result": 0.348},
      {"measurement": "glycan array binding signal (z-score)", "setting": "[17]", "result": -0.49},
      {"measurement": "glycan array binding signal (z-score)", "setting": "[18]", "result": -0.348},
      {"measurement": "glycan array binding signal (z-score)", "setting": "[19]", "result": -0.221},
      {"measurement": "glycan array binding signal (z-score)", "setting": "[20]", "result": -0.297},
      {"measurement": "glycan array binding signal (z-score)", "setting": "[21]", "result": -0.683},
      {"measurement": "glycan array binding signal (z-score)", "setting": "[22]", "result": 0.003},
      {"measurement": "glycan array binding signal (z-score)", "setting": "[23]", "result": -0.937},
      {"measurement": "glycan array binding signal (z-score)", "setting": "[24]", "result": -0.231},
      {"measurement": "glycan array binding signal (z-score)", "setting": "[25]", "result": -0.815},
      {"measurement": "glycan array binding signal (z-score)", "setting": "[26]", "result": -0.673},
      {"measurement": "glycan array binding signal (z-score)", "setting": "[27]", "result": -0.932},
      {"measurement": "glycan array binding signal (z-score)", "setting": "[28]", "result": -0.071},
      {"measurement": "glycan array binding signal (z-score)", "setting": "[29]", "result": -0.393},
      {"measurement": "glycan array binding signal (z-score)", "setting": "[30]", "result": 0.087}
    ]}
  ]
}
